For assay [1], the target named is OCT4 (human (endogenous in hESCs)) (UniProt Q01860). The experiment in a line: co-IP; lysate of day 2 neuroectoderm differentiation cells (LDN193189 and SB431542 treatment), WT and BAF250a KO; anti-OCT4 IP, blots for β-CATENIN and active β-CATENIN.
Assay [2] shares this target. The assay is described as follows: co-IP; lysate of day 1 differentiated (mesodermal) hESCs, WT and BAF250a KO (4-OHT); anti-OCT4 antibody with Dynabeads at 4°C overnight; lysis buffer 20 mM HEPES pH 8.0, 150 mM NaCl, 1% NP-40, 2 mM EDTA; blots for β-CATENIN, active β-CATENIN and BRG1.

Amino acid sequences for entries named in this document (tags omitted).
UniProt Q01860: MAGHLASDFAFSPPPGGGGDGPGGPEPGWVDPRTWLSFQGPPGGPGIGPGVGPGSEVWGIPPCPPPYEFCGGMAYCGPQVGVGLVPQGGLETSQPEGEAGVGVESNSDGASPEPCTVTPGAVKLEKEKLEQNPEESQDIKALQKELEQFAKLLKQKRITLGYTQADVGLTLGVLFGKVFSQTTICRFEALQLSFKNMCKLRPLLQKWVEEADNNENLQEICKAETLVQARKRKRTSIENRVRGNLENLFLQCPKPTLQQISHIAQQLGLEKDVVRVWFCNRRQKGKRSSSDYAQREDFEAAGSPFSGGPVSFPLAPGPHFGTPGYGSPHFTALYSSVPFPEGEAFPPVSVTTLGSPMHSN
UniProt P35222: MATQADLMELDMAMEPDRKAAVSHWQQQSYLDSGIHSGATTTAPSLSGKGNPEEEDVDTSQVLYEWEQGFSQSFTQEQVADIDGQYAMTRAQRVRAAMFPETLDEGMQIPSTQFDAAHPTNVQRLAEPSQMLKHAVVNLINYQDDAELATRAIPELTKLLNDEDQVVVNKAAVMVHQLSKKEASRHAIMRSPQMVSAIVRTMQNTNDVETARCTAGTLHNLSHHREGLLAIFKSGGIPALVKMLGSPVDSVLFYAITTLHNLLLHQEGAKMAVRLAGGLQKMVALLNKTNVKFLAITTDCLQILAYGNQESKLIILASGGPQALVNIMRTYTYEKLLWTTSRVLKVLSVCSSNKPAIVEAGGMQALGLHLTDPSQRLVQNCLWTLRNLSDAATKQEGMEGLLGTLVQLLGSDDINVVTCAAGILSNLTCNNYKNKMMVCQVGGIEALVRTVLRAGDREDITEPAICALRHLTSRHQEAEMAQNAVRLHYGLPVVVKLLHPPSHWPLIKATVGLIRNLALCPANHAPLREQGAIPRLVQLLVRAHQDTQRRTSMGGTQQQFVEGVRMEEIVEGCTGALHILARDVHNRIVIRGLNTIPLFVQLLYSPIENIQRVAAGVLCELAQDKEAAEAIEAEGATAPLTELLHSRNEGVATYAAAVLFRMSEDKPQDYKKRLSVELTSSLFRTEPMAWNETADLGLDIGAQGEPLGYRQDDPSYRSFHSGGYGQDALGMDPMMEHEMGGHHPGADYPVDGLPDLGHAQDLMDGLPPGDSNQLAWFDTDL

No constants are given. Whether binding was seen depends on the method and setting. In cells and extracts the contact can be indirect. Some binding calls cover weakened binding; strength is not graded here.

Regarding β-CATENIN (from UniProt P35222 1-781), the binding result in assay [1] and in assay [2] was “binds” in each case.

Source of the values: publication PMC6987383.
